# The whole screen tested about 140,000 compounds, of which about 4,300 (3.1%) were called active. Inconclusive means that the source gave no clear call. Such entries were picked first, then a sample of the others.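 The calls were made as follows: active = readout at or below -70, meaning at least 70% loss of cells showing the perinucleolar compartment, a nuclear body marking cancer cells; inconclusive = readout between -30 and a set limit; inactive = the rest.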
# Experiment: High Content Assay for Compounds that inhibit the Assembly of the Perinucleolar Compartment;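 also: plate controls were DMSO wells for no effect and camptothecin positive control wells for full effect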
# Conditions: PC3M PTB-GFP, PNC prevalence imaging, 16 h; at 10 µM; stronger effect = lower value
# Summary of the method: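 PC3M cells stably expressing PTB-GFP, 750–1000 cells/well, treated 16 h at 37 °C with compound (23 nl of library stock), in duplicate. After paraformaldehyde fixation and Hoechst stain, imaged at 20x; PNC prevalence scored by image analysis.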
row,SMILES,"activity change (PNC), negative = inhibition"
1,CN(C)c1cccc2c(S(=O)(=O)Nc3ccccn3)cccc12,inconclusive: -38.3%
2,CN1/C(=C\C=C2/C(=O)Oc3ccccc3C2=O)C(C)(C)c2ccccc21,active: -90.5%
3,CCc1ccccc1NC(=O)CN(C)C(=O)CN1C(=O)NC2(CCCCCC2)C1=O,inconclusive: -30.5%
4,CC(=O)Nc1cccc(NC(=O)CSc2nnc(Cc3cccn3C)n2-c2ccc(C)cc2)c1,inconclusive: -77.5%
5,O=C(O)/C=C1\NC(=O)c2ccccc21,inconclusive: -38.9%
6,CCOc1ccc(S(=O)(=O)NCC(=O)N(C)Cc2cccnc2)cc1,inconclusive: -36%
7,CCCCN(C(=O)Cn1nnc2ccccc21)C(C(=O)NCCOC)c1ccccc1 (stereo not drawn),inconclusive: -39.9%
8,COc1cc(NC(=O)c2cccs2)c(C(=O)OCC(=O)NC(=O)NCc2ccccc2)cc1OC,inconclusive: -39.2%
9,COc1ccccc1N1CCN(C(CNC(=O)C2CCCCC2)c2cccnc2)CC1 (stereo not drawn),inconclusive: -41.2%
10,CCCCCn1c(=NC(=O)c2ccco2)c(C(=O)OCC)cc2c(=O)n3ccccc3nc21,inconclusive: -31.2%
11,CCCC(=O)NCCc1ccc(F)cc1,inconclusive: -64.7%
12,Cc1nnc2n(Cc3ccccc3)c(=O)c3c4c(sc3n12)COC(C)(C)C4,inactive: 15.4%
13,CCOC(=O)C1=C(C)Nc2ccccc2N=C1NC(=O)C(CC)c1ccccc1 (stereo not drawn),inactive: 75.2%
14,COCCOC(=O)c1c(NC(=O)CN2CCCc3ccccc32)sc(C(N)=O)c1C,inconclusive: -40.3%
15,COc1ccccc1NS(=O)(=O)c1ccc(C)c(C(=O)NCC2CCCO2)c1 (stereo not drawn),inconclusive: -45.2%
16,CCOC(=O)c1cnc2ccc(F)cc2c1Nc1ccc2c(c1)OCCO2,inconclusive: -31.4%
17,Cc1cccn2c(=O)c3cc(C(=O)O)n(C)c3nc12,inconclusive: -72%
18,COCC(=O)N1CCCc2ccccc21,inactive: 17.1%
19,O=C(COC(=O)Cn1cnc2ccccc21)NCCc1ccccc1,active: -83.5%
20,C=CCSc1nnc(NC(=O)CSc2nc3ccccc3o2)s1,inactive: -23.2%

row,SMILES,"activity change (PNC), negative = inhibition"
1,Cc1ccc(NC(=O)CCC(=O)O)cc1F,inconclusive: -56.5%
2,COC(=O)c1cc(C(=O)NCCN2C(=O)S/C(=C\c3cccs3)C2=O)cc([N+](=O)[O-])c1,inconclusive: -60.4%
3,Cc1ccc(N=Nc2ccc(O)c3ncccc23)cc1,inconclusive: -57.6%
4,CCOC(=O)Nc1sc(C)c(C)c1C(N)=O,inconclusive: -50.2%
5,CCn1ncc(Br)c1C(=O)Nc1cc([N+](=O)[O-])ccc1C,inactive: -17.4%
6,O=C(NCc1ccccn1)Nc1ccc(Cl)c(Cl)c1,active: -84.3%
7,CC1(C)CC(=O)C2=C(C1)N=C1c3ccccc3C(=O)C1C2c1ccc(Cl)cc1 (stereo not drawn),inactive: 28.9%
8,CCCNc1nc2c(c(=O)n(C)c(=O)n2C)n1Cc1cccc(C)c1,inconclusive: -34.5%
9,COc1ccc(CC(=S)N2CCOCC2)cc1OC,inactive: 64.6%
10,Cc1nnc(N2C(=O)c3cccc4cccc(c34)C2=O)s1,active: -111%
11,CN(C)S(=O)(=O)c1ccc(Cl)c(NC(=O)COC(=O)c2cc(-c3ccccc3)nc3ccccc23)c1,inconclusive: -77.7%
12,COc1cccc(C2NC(=O)NC(C)=C2C(=O)Nc2cc(OC)ccc2OC)c1 (stereo not drawn),inconclusive: -45.8%
13,Cc1ccc2oc(-c3ccc(NC(=O)CC(C)C)cc3)nc2c1,inconclusive: -74.6%
14,CC(C)CCNC(=O)C(=O)NCCC1=CCCCC1,inactive: 44.9%
15,Cc1nccn1Cc1cccc2ccccc12,inactive: -20.8%
16,Cn1c(=O)oc2cc(S(=O)(=O)NCc3ccco3)ccc21,inconclusive: -71.9%
17,CC(=O)Nc1ccc2c(c1)nc1n2CCSC1,inactive: 35.2%
18,Cc1cc(C(=O)CSc2nc(N)cc(N)n2)c(C)n1CCc1ccc(F)cc1,inconclusive: -63.6%
19,CC(=O)Nc1c2c(nn1-c1ccc(C)cc1C)CSC2,inconclusive: -77.4%
20,C=CCOc1ccc(NC(=O)C2CC(=O)N(C(C)C)C2)cc1 (stereo not drawn),inconclusive: -41.1%

row,SMILES,"activity change (PNC), negative = inhibition"
1,CC(=O)c1cccc(NC(=O)N2CCC(c3nnc(SCC(N)=O)n3C)CC2)c1,inactive: 5.41%
2,O=S1(=O)CCC(NC(=S)N2CCOCC2)C1 (stereo not drawn),active: -102%
3,COc1ccc(CC(=O)NCc2nnc(SCc3ccc(C)cc3)n2C)cc1,active: -92.3%
4,CCCCN(CC)Cc1ccc(CNC(=O)Nc2ccc(OC)cc2OC)o1,inactive: 34.9%
5,Cc1ccc(NC(=O)COc2ccc(C3SCCS3)cc2)cc1,inconclusive: -50.4%
6,CC1CC(C)CN(S(=O)(=O)c2ccc(Oc3ccc([N+](=O)[O-])cc3)cc2)C1 (stereo not drawn),inconclusive: -37%
7,COn1c(SC2CCCCC2)nc2ccccc2c1=O,inconclusive: -39.4%
8,Cc1nn(-c2ccccc2)c(Cl)c1C(=O)Nc1nnc(C2CCCCC2)s1,inconclusive: -31.7%
9,COc1ccc(C2CC(=O)C=C(NNS(=O)(=O)c3ccc(C)cc3)C2)cc1 (stereo not drawn),inconclusive: -32.1%
10,COC(=O)CC(=O)Cc1nc(N)nc(Nc2ccc(C)c(C)c2)n1,active: -100%
11,Cc1ccc(NC(=O)c2cnccn2)cc1S(=O)(=O)N(C)C,inactive: 58.9%
12,N=C1/C(=C/c2cccn2-c2ccc([N+](=O)[O-])cc2)C(=O)N=C2SC=CN12,inconclusive: -30.3%
13,O=C1c2ccccc2NC(c2cccnc2)N1c1ccccc1F (stereo not drawn),inconclusive: -38.4%
14,Cc1ccc(/C=C2\OC(=O)c3ccccc32)cc1,inactive: -8.85%
15,Cn1c(=O)c2c(nc(N3CCCCC3)n2C)n(C)c1=O,inconclusive: -38.5%
16,Cc1nn(Cc2ccccc2Cl)c(C)c1NC(=O)CCCn1nc(C)c([N+](=O)[O-])c1C,inactive: 67.3%
17,Cc1ccc(C)c(N2C(=O)c3cc(N4CCOCC4)c([N+](=O)[O-])cc3C2=O)c1,inconclusive: -46.6%
18,O=C1c2cccnc2C(=O)N1c1cccc(-c2nc3ccccc3o2)c1,inconclusive: -46.7%

# Entries listed so far that have a halogen (11):
row,SMILES,"activity change (PNC), negative = inhibition"
11,CCCC(=O)NCCc1ccc(F)cc1,inconclusive: -64.7%
16,CCOC(=O)c1cnc2ccc(F)cc2c1Nc1ccc2c(c1)OCCO2,inconclusive: -31.4%
1,Cc1ccc(NC(=O)CCC(=O)O)cc1F,inconclusive: -56.5%
5,CCn1ncc(Br)c1C(=O)Nc1cc([N+](=O)[O-])ccc1C,inactive: -17.4%
6,O=C(NCc1ccccn1)Nc1ccc(Cl)c(Cl)c1,active: -84.3%
7,CC1(C)CC(=O)C2=C(C1)N=C1c3ccccc3C(=O)C1C2c1ccc(Cl)cc1 (stereo not drawn),inactive: 28.9%
11,CN(C)S(=O)(=O)c1ccc(Cl)c(NC(=O)COC(=O)c2cc(-c3ccccc3)nc3ccccc23)c1,inconclusive: -77.7%
18,Cc1cc(C(=O)CSc2nc(N)cc(N)n2)c(C)n1CCc1ccc(F)cc1,inconclusive: -63.6%
8,Cc1nn(-c2ccccc2)c(Cl)c1C(=O)Nc1nnc(C2CCCCC2)s1,inconclusive: -31.7%
13,O=C1c2ccccc2NC(c2cccnc2)N1c1ccccc1F (stereo not drawn),inconclusive: -38.4%
16,Cc1nn(Cc2ccccc2Cl)c(C)c1NC(=O)CCCn1nc(C)c([N+](=O)[O-])c1C,inactive: 67.3%

# Exported bar-delimited: two of the compounds above.
row | SMILES | activity change (PNC), negative = inhibition
6 | CC1CC(C)CN(S(=O)(=O)c2ccc(Oc3ccc([N+](=O)[O-])cc3)cc2)C1 (stereo not drawn) | inconclusive: -37%
7 | COn1c(SC2CCCCC2)nc2ccccc2c1=O | inconclusive: -39.4%
